Reference: PubChem BioAssay AID2685 (National Center for Advancing Translational Sciences (NCATS), 2010)
In all, about 320,000 compounds went through this assay and about 2,100 (0.66%) were called active. This list was built around the results that the source calls inconclusive (neither active nor inactive); the mix of calls is not that of the screen. Calls come from the whole dose curve; as a rule, active = well fitted inhibition curve with a large enough effect in the signal ratio, with a control signal flat (not every such curve was filed as active); inconclusive = small, poorly fitted or top-dose-only effect, or effect the other way, or a change in a side signal; inactive = flat fitted curve, though single readings scatter; the % refers to the signal ratio. A potency beside an inconclusive call is a rough fit, not a confirmed value.

Test: qHTS Assay for Lipid Storage Modulators in Drosophila S3 Cells
Details: BODIPY lipid droplet fluorescence, 18-24 h, cells fed with added oleic acid; lipid storage change, negative = inhibition: at 46.1 µM (top of the series) unless noted
In short: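 Drosophila S3 cells got compounds at several concentrations plus oleic acid (400 uM solution). Laser-scanning cytometry with 488 nm excitation read lipid droplets at 500-530 nm and cells at 575-640 nm. Percent activity was relative to 20 uM Triacsin C.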
% is set by controls: 0 for no effect and ±100 for the full control effect; potency is the fitted concentration of half-maximal effect.

Lipid storage change, negative = inhibition, inconclusive:
CCNC(=O)n1cc(-n2cncn2)c(-c2ccc(Cl)cc2)n1 -17.4%
CC(=O)c1ccc(N2CCN(CC(=O)N(C3CC3)C3CCS(=O)(=O)C3)CC2)c(F)c1 (stereo not drawn) 5.9%
COc1ccc(-n2c(=S)[nH]c3cc(C(=O)NCCCN4CCCC4=O)ccc3c2=O)cc1OC -38.7%
COc1cc(OC)cc(C(=O)Nc2cccc3cccnc23)c1 -3.03%
O=C(CSc1nnc(-c2ccccc2)n1Cc1ccccc1)N1CCOCC1 23.6%
COc1ccc(CC(=O)NCC2CCCN(Cc3cc(OC)cc(OC)c3)C2)cc1 (stereo not drawn) 249%
CN(CCCC(=O)NCc1ccccc1)S(=O)(=O)c1ccc([N+](=O)[O-])cc1 -11.2%
COC(=O)c1c(NC(=O)CSc2nnnn2-c2ccccc2)sc2c1CCC(C)C2 (stereo not drawn) -19.9%
CC1/C(=N/O)C(CN(C)C)C2CC1C2(C)C (stereo not drawn) -44.4%
COc1cc(C)c(NC(=O)C(=S)N2CCCC2)cc1C -10.9%
O=C(O)c1cccc(S(=O)(=O)Nc2cccc(S(=O)(=O)Nc3ccc(Br)cc3)c2)c1 -100%
COc1ccc(-c2noc(-c3cccc(OC)c3OC)n2)cc1OC 46.8%
CC(C)(C)C(=O)NC(=S)Nc1sc2c(c1C(N)=O)CCC2 -2.54%
O=C(O)Cc1csc(-c2cccc(F)c2)n1 9.21%
Cc1ccc2c(Cl)cc(Cl)c(OCC(=O)NCCc3ccccn3)c2n1 72%
N#Cc1cn(-c2ccccc2)nc1-c1cc2ccccc2oc1=O 33.2%
Cc1ccc(S(=O)(=O)N2CCN(c3ccc(C(F)(F)F)cc3[N+](=O)[O-])CC2)cc1 -41.4%
CCN(CC)C(=O)CSc1nc(COc2ccccc2)nc2ccccc12 -14.9%
COc1ccc(OC)c(N(CC(=O)Nc2ccccc2)S(=O)(=O)c2ccccc2)c1 -66.6%
O=C(CCCCCn1c(=S)[nH]c2ccccc2c1=O)NCc1ccc2c(c1)OCO2 -40.7%
Cc1noc(C)c1S(=O)(=O)N1CCC(C(=O)N2CCN(c3ccc(Cl)cc3)CC2)CC1 152%
CNc1cnn(-c2ccccc2)c(=O)c1Cl -29.1%
CCSCCC(NC1=CC(=O)CC(C)(C)C1)C(=O)O (stereo not drawn) -9.93%
COc1cc(NC(=O)COc2cc(C)cc3oc(=O)c(C)c(C)c23)cc(OC)c1OC 200%
COc1cccc(-c2ccc(NC(=O)C3CCCN(Cc4nccn4C)C3)cc2)c1 (stereo not drawn) 29.7%
CCOC(=O)CC(=O)NC(CC(=O)OC)c1ccc(Br)cc1 (stereo not drawn) 21.3%
CCOC(=O)c1[nH]c2ccccc2c1NC(=S)Nc1ccccc1 25.8%
CC(C)(C)c1ccc(C(=O)Nc2cccc([N+](=O)[O-])c2)cc1 -6.98%
COc1ccc(-c2oc(NC(=O)CCl)c(C#N)c2-c2ccc(OC)cc2)cc1 0.584%
Cc1cc(C(=O)Nc2cccc(O)c2)co1 -87.7%
Cc1c(C(c2cccc([N+](=O)[O-])c2O)c2c(C)n(C)n(-c3ccccc3)c2=O)c(=O)n(-c2ccccc2)n1C -1.25%
COCCN(CCOC)Cc1c(O)ccc2c3c(c(=O)oc12)CCC3 19.5%
NC(=O)NC(CC(=O)NCCCc1ccccc1)c1ccc(Cl)cc1 (stereo not drawn) 0.227%
CC1=C(C(N)=O)C(c2ccncc2)n2nc(-c3ccccc3Cl)nc2N1 (stereo not drawn) 22.8%
CC1CCCCN1C(=O)CSc1nc(C2CC2)nc2ccccc12 (stereo not drawn) 71.1%
Cc1ccc2[nH]c(=O)c(CN(CC3CCCO3)S(=O)(=O)c3c(C)ccc4nsnc34)cc2c1 (stereo not drawn) 38.9%
c1ccc(-c2cnnc(N3CCCCC3)n2)cc1 49%
CCn1c(SCC(=O)Nc2ccccc2F)nnc1-c1ccoc1C 17.1%
CCN(CC)CCn1c2c(c(SCC(=O)Nc3nc(C)cs3)nc1=O)CCC2 4.19%
CCOC(=O)C1CCN(C(=O)Cn2cnc3sc(C)c(S(=O)(=O)N4CCCCC4)c3c2=O)CC1 0.831%
Cc1cc(C)cc(NC(=S)NCCc2ccc(S(N)(=O)=O)cc2)c1 3.12%
Oc1ccc(/C=N/Nc2ncnc3nc[nH]c23)cc1 22.5%
O=C(Nc1cccnc1)/C(N=Nc1ccc(Cl)c(C(F)(F)F)c1)=C(\O)c1ccccc1 -21.6%
COc1cccc(C(=O)NC(=S)N2CCN(c3ccc(C(F)(F)F)cc3[N+](=O)[O-])CC2)c1 6.09%
Cc1ccc(Cl)cc1NC(=O)CN1C(=O)COc2ccc(S(=O)(=O)N3CCOCC3)cc21 93.7%
Cn1c(C(=O)c2ccccc2[N+](=O)[O-])nc2ccccc21 -4.28%
COc1cccc(NC(=O)Cc2cn(C)c3ccccc23)c1 15%
CC1Sc2ccc(C(=O)O)cc2NC1=O (stereo not drawn) -14.9%
Cc1snc(SCC(=O)c2ccc(F)cc2)c1C#N 2.84%
Cc1ccc(C)c(S(=O)(=O)NC(C)C(=O)Nc2ccc(-c3nc4ccccc4s3)cc2)c1 (stereo not drawn) 31.2%
Cc1noc(C)c1S(=O)(=O)N1CCN(c2ccccc2Cl)CC1
Cc1ccc(O)c(CNc2cccc3cccnc23)c1 -23%
Cc1cccc(/C(N)=N/OC(=O)c2ccco2)c1 114%
COCCn1c(SCc2cnc(-c3ccccc3)s2)nnc1-c1ccncc1 28.8%
NS(=O)(=O)c1ccc(CCNC(=O)C(=O)NCC2OCCN2S(=O)(=O)c2cc(F)ccc2F)cc1 (stereo not drawn) 25.1%

Fetched by compound from the entries so far (4):
Lipid storage change, negative = inhibition, inconclusive:
COCCN(CCOC)Cc1c(O)ccc2c3c(c(=O)oc12)CCC3 19.5%
CNc1cnn(-c2ccccc2)c(=O)c1Cl -29.1%
COc1ccc(CC(=O)NCC2CCCN(Cc3cc(OC)cc(OC)c3)C2)cc1 (stereo not drawn) 249%
CC(C)(C)C(=O)NC(=S)Nc1sc2c(c1C(N)=O)CCC2 -2.54%

Following part:

Lipid storage change, negative = inhibition, inactive:
CCOc1ccc(-c2nnn(CC(=O)NCc3cccs3)n2)cc1
Cc1c(NC(=O)c2ccc(N(C)S(=O)(=O)c3ccccc3)cc2)c(=O)n(-c2ccccc2)n1C
COc1ccc(CCNC(=O)C2CCN(C(=O)c3ccc(Cl)cc3)CC2)cc1

Potency, inconclusive:
O=C(CCN1CCN(c2ccccc2F)CC1)Nc1ccc(F)cc1 2.59 µM [activator, full curve]
O=C(CSc1nnc(-c2ccco2)n1-c1ccccc1)NCCc1ccccc1 0.82 µM [activator, full curve, poor fit]
Cc1cccc(C)c1NC(=O)/C(=C/c1ccco1)c1ccccc1 2.31 µM [rising, partial curve]
CC(C(=O)N(C)c1ccccc1)N1CCN(C(=O)c2ccccc2)CC1 (stereo not drawn) 0.58 µM [activator, single point]
O=C(C1CCCCC1)N1CCN(S(=O)(=O)c2ccc(Cl)cc2)CC1 8.2 µM [activator, partial curve]
CCOC(=O)c1cc(CC)sc1NC(=O)C1CC1 18.4 µM [activator, single point]
O=C1CN(C(=O)COC(=O)CNS(=O)(=O)c2ccccc2)c2ccccc2N1 9.2 µM [falling, partial curve, poor fit]
O=C(O)c1cccc(NC(=O)C2C3C=CC(C3)C2C(=O)OCC(F)(F)C(F)F)c1 (stereo not drawn) 29.1 µM [falling, single point]
Cc1cccc(C)c1OCCOC(=O)c1cccc(S(=O)(=O)N2CCOCC2)c1 16.4 µM [falling, partial curve]
Cc1cccc(CCN2CCN=C2Nc2ccccc2)c1 29.1 µM [activator, single point]
O=C(Nc1ccccc1C(=O)Nc1ccc(Br)cn1)c1cccc([N+](=O)[O-])c1 6.51 µM [falling, single point]
O=C(CN(c1ccc(F)cc1)S(=O)(=O)c1ccc2c(c1)OCCO2)Nc1ccc2c(c1)OCO2 1.84 µM [rising, partial curve]
Cc1ccc(-c2nc(-c3cccnc3)no2)c(C)c1 6.51 µM [rising, single point]
O=C(COC(=O)c1ccc(O)cc1)Nc1cccc(S(=O)(=O)NC2=NCCC2)c1 0.651 µM [activator, full curve]
Cc1ccc(NS(=O)(=O)c2ccc(NC(=O)CSc3ccc(Cl)cc3)cc2)c(C)c1 16.4 µM [falling, partial curve]
COc1ccc(C(=O)Nc2ccccc2C(=O)N/N=C/c2ccco2)cc1 5.8 µM [activator, partial curve]
Oc1ccc(/C=N/n2c(-c3ccccc3)n[nH]c2=S)cc1 6.51 µM [activator, partial curve]
COc1ccc(OC)c(NC(=O)CN2C(=O)C(C)N(c3ccc(C)cc3)C2=O)c1 (stereo not drawn) 29.1 µM [falling, single point]
C=CCNC(=O)CSc1ccc(Cl)cc1 2.59 µM [falling, full curve]
COCCCNC(=O)Cc1c(C)c2c(cc(C)c3c(C)c(C)oc32)oc1=O 0.58 µM [falling, single point]
